Results taken from paper PMC6814823.
Results are given in words; binding and its absence hold for the method and conditions named. In cells and extracts the contact can be indirect. Some results given as binding are weak or reduced against the parent protein; the word gives no strength.

Protein sequences, listed by entry. Tags and fused reporters are not part of them.
UniProt Q13569: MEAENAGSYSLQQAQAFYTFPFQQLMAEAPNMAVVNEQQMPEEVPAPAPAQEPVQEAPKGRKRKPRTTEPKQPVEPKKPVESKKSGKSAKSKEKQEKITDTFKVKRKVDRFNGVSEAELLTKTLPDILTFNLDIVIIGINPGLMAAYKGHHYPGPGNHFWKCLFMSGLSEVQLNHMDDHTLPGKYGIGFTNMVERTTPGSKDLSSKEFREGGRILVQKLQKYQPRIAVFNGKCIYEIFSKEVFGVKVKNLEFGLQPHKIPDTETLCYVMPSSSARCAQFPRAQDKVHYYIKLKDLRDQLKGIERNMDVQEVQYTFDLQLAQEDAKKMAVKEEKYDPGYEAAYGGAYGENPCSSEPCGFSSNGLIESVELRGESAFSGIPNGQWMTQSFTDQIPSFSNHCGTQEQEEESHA

Target: Ten-eleven translocation 2 (TET2) (human (in HaCaT cells; endogenous or transfected not stated)) (UniProt Q6N021)
Assay: co-IP; coimmunoprecipitation in HaCaT cells, with and without ectopic expression of the lncRNA TETILA; bait not stated

binding: binds
Substance: thymine-DNA glycosylase (TDG) (from UniProt Q13569 1-410) (enzyme)
